# Measurements as given in PubChem BioAssay AID504834 (National Center for Advancing Translational Sciences (NCATS), 2011).
# Among all 320,000 compounds or so, about 22,000 (6.9%) were called active. The inconclusive results got no clear call from the source; some entries with a clear call stand among them for comparison. Calls follow the shape of the dose curve; as a rule, active = well fitted inhibition curve with a large enough effect; inconclusive = small, poorly fitted or top-dose-only effect, or another doubt; inactive = no such curve, though single readings can be large or run the other way. Where the call is inconclusive, the potency comes from a doubtful curve fit.
# Experiment: Primary qHTS for delayed death inhibitors of the malarial parasite plastid, 96 hour incubation
# Settings: P. falciparum luciferase reporter growth; series mostly up to 28.7 µM; activity change, negative = inhibition: at the top concentration
# How it was run: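 Erythrocytes infected with luciferase-expressing P. falciparum were dispensed at 2% hematocrit and 0.05% parasitemia (final), then incubated with compounds 96 hours at 37 C in 5% CO2. Luminescence after detection reagent addition reported growth.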
# % is scaled to controls: 0 for no effect and ±100 for the full control effect; potency is read from the fitted curve at half-maximal effect.
Compound,"activity change, negative = inhibition",Potency
Cc1ccc(S(=O)(=O)NCC(C)n2cncn2)cc1C (stereo not given),inactive: -14.3%,–
Cc1cccc(N2CCN(C(=O)CS(=O)(=O)Cc3nc(-c4ccccc4F)oc3C)CC2C)c1 (stereo not given),inactive: 50.9%,–
COc1ccc(N2CCN(S(=O)(=O)CCNC(=O)C3CC3)CC2)cc1,inactive: -2.05%,–
Cc1ccccc1NC(=S)N1CCCCCC1,–,"inconclusive: 11.7 µM [inhibitor, partial curve, poor fit]"
COc1ccccc1CNc1ccc2nnc(CCNC(=O)c3ccc(C)cc3)n2n1,–,"inconclusive: 4.65 µM [inhibitor, partial curve, poor fit]"
Cc1cc(N2CCNCC2)nc2ccccc12,–,"inconclusive: 8.28 µM [inhibitor, partial curve, poor fit]"
c1ccc(CCn2nnnc2CN2CCc3ccccc32)cc1,inactive: 7.74%,–
Cc1ccc(CNC(=O)/C=C/c2ccc(Br)o2)cc1,inactive: 0.384%,–
O=C(Cn1cnc2c(oc3ccccc32)c1=O)N1CCN(c2ccccc2)CC1,–,"inconclusive: 4.15 µM [inhibitor, single point]"
CN1CCN(c2oc(-c3ccco3)nc2S(=O)(=O)c2ccccc2)CC1,–,"inconclusive: 7.38 µM [inhibitor, partial curve]"
Cc1cc(C)nc(N2CCCC(C(=O)NCCc3ccc(F)cc3)C2)n1 (stereo not given),–,"inconclusive: 0.294 µM [inhibitor, full curve, poor fit]"
c1ccc(C[C@H]2CNCCN2CCCCC2CCCCC2)cc1,–,"inconclusive: 18.5 µM [inhibitor, single point]"
COC(=O)C1CCN(C2=C(NS(=O)(=O)c3ccc(Cl)cc3)C(=O)c3ccccc3C2=O)CC1,–,"inconclusive: 10.4 µM [inhibitor, partial curve, poor fit]"
CCCCOc1ccc(/C=C/C(=O)OCC(=O)N2CC(=O)Nc3ccccc32)cc1OCC,–,"inconclusive: 0.828 µM [inhibitor, partial curve, poor fit]"
COc1cccc(-c2c(C(=O)N/N=C(\C)c3cccnc3)nnn2-c2nonc2N)c1,inactive: 10.4%,–
CCn1cnnc1SCC(=O)NCC1COc2ccccc2O1 (stereo not given),–,"inconclusive: 18.5 µM [inhibitor, single point]"
CCOC(=O)N1CCN(c2ccnc3cc(Cl)ccc23)CC1,–,active: 2.33 µM
CC(=O)O[C@]1(C)C(=O)OC/C2=C/CN(C)CCC(OC(=O)[C@@](O)(C(C)O)C[C@H]1C)C2=O (stereo not given in full),–,"inconclusive: 0.37 µM [inhibitor, partial curve, poor fit]"
CCOC(=O)C1CCN(C(=O)c2ccc(OCC(=O)Nc3cccc(C(F)(F)F)c3)cc2)CC1,inactive: -6.18%,–
COC(=O)C1=C(c2ccc(Cl)c(C(F)(F)F)c2)C[C@@H]2CC[C@H]1N2C(=O)NCc1cc(C)oc1C(F)(F)F,–,"inconclusive: 3.29 µM [inhibitor, full curve]"
Cc1ccccc1CNC(=O)CCCC(=O)n1nc(C)c2ccccc21,inactive: 0%,–
Cc1cc(SCc2ccc(Cl)c(Cl)c2)nc(=O)[nH]1,–,"inconclusive: 18.5 µM [inhibitor, single point]"
Oc1cccc(/C=N/Nc2cc(N3CCCC3)nc(N3CCCC3)n2)c1,–,"inconclusive: 18.5 µM [inhibitor, single point]"
CC(Sc1ccccc1)C(=O)NCC(c1ccco1)N1CCCCC1 (stereo not given),–,"inconclusive: 18.5 µM [inhibitor, single point]"

# An excerpt of these results, with tabs:
Compound	activity change, negative = inhibition	Potency
Cc1cc(C)nc(N2CCCC(C(=O)NCCc3ccc(F)cc3)C2)n1 (stereo not given)	–	inconclusive: 0.294 µM [inhibitor, full curve, poor fit]
COc1cccc(-c2c(C(=O)N/N=C(\C)c3cccnc3)nnn2-c2nonc2N)c1	inactive: 10.4%	–
COC(=O)C1=C(c2ccc(Cl)c(C(F)(F)F)c2)C[C@@H]2CC[C@H]1N2C(=O)NCc1cc(C)oc1C(F)(F)F	–	inconclusive: 3.29 µM [inhibitor, full curve]

# Next part.

Compound,"activity change, negative = inhibition",Potency
O=C(NNS(=O)(=O)c1ccccc1)C1CC(c2cccnc2)=NO1 (stereo not given),inactive: 0.655%,–
Cc1cc(SCC(=O)NC2CCCCC2)nc2ccccc12,–,"inconclusive: 11.7 µM [inhibitor, single point]"
Nc1cc(-c2ccccc2)nn1Cc1ccccc1,–,"inconclusive: 2.33 µM [inhibitor, single point]"
Cc1ccc(S(=O)(=O)NC(CC(C)C)C(=O)NCCCn2nc(C)cc2C)cc1 (stereo not given),–,"inconclusive: 6.57 µM [inhibitor, partial curve, poor fit]"
COc1ccc(N2CC(C(=O)Nc3nnc(SCc4cccnc4)s3)CC2=O)cc1 (stereo not given),–,active: 13.1 µM
CC12CC(NC(=O)N1Cc1ccccc1)c1ccccc1O2 (stereo not given),–,"inconclusive: 5.22 µM [inhibitor, partial curve]"
Nc1nc2c(F)c(F)c(F)cc2s1,inactive: -0.205%,–
COc1ccccc1NC(=O)c1ccc(CN(c2cc(Cl)ccc2C)S(=O)(=O)c2ccccc2)cc1,–,"inconclusive: 11.7 µM [inhibitor, single point]"
C/C(=N\NC(=O)c1cc(-c2cccnc2)nc2ccccc12)c1ccc(O)cc1O,–,"inconclusive: 11.7 µM [inhibitor, single point]"
Cc1csc2nc(CCNS(=O)(=O)c3cccs3)cn12,inactive: 84.7%,–
CCCCCCn1c(COc2ccccc2F)nnc1SCC(=O)c1c(N)n(C)c(=O)n(C)c1=O,–,"inconclusive: 0.329 µM [inhibitor, full curve, poor fit]"
CCN(CC)S(=O)(=O)c1ccc(C(=O)OCC(=O)N2CCN(C(=O)c3ccco3)CC2)cc1,–,"inconclusive: 13.1 µM [inhibitor, single point]"
O=C(Cn1c(=O)[nH]c2ccccc2c1=O)Nc1ccc2c(c1)OCO2,inactive: 22.2%,–
COCCn1ccc2c(OCC(=O)NCCc3ccccc3)cccc2c1=O,–,"inconclusive: 18.5 µM [inhibitor, partial curve, poor fit]"
CC(C)(C)NC(=O)CC1C(=O)NCCN1Cc1c(F)cccc1Cl (stereo not given),–,"inconclusive: 9.28 µM [inhibitor, single point]"
CCOc1ccc(NC(=S)Nc2ccc(OC)cc2)cc1,–,"inconclusive: 11.7 µM [inhibitor, single point]"
Cc1ccc(NC(=S)N2CCN(S(=O)(=O)c3ccccc3)CC2)cc1C,–,"inconclusive: 5.86 µM [inhibitor, partial curve, poor fit]"
CCOc1ccc(NC(=O)CN(C)C(=O)c2cc(-c3ccc(OC)cc3)nc3ccccc23)cc1OCC,–,active: 7.38 µM
COc1ccccc1N1CCN(C(=O)c2cc(-c3ccccc3)on2)CC1,inactive: -1.27%,–
CCOc1ccc(NC(=O)CN(C)C(=O)c2cc(S(=O)(=O)N3CCCCC3)ccc2Cl)cc1OCC,–,"inconclusive: 16.5 µM [inhibitor, single point]"
COCCCn1cnc2c(c1=O)c1nc3ccccc3nc1n2CCc1ccccc1,–,"inconclusive: 8.28 µM [inhibitor, partial curve]"
CCCCOc1cccc(-c2nnc(NC(=O)CSc3ccc(C)cc3)s2)c1,–,"inconclusive: 8.28 µM [inhibitor, partial curve, poor fit]"
O=C(COc1ccc(Br)cc1Br)NC1CCS(=O)(=O)C1 (stereo not given),inactive: -4.89%,–
COC(=O)c1cc(NC(=O)Cc2ccc(OC)c(OC)c2)cc(C(=O)OC)c1,–,"inconclusive: 18.5 µM [inhibitor, single point]"

Compound,"activity change, negative = inhibition",Potency
CCCn1nnc(NC(=O)c2ccc(OC)cc2)n1,inactive: 168%,–
COc1cc(C(=O)N=c2sccn2C)c([N+](=O)[O-])cc1OC,–,"inconclusive: 16.5 µM [inhibitor, partial curve, poor fit]"
CCOC(=O)CNC(=O)N1CCCC(C(=O)c2cc(C)c(OC)c(C)c2)C1 (stereo not given),–,"inconclusive: 4.15 µM [inhibitor, partial curve]"
COc1ccccc1N(C)S(=O)(=O)c1ccc(C(=O)OCC(=O)N2CCCCCC2)cc1,–,"inconclusive: 0.0828 µM [inhibitor, full curve, poor fit]"
CCOc1ccc(-c2cc3cc(OC)c(OC)cc3c(C)n2)cc1,inactive: 35.8%,–
Cc1ccccc1OCC(=O)Nc1ccc2c(c1)n(C)c(=O)n2C,inactive: -18.7%,–
CC(=O)Nn1c(C)nnc1-n1nc(C)cc1C,inactive: 0.884%,–
COc1cc(Cl)c(NS(=O)(=O)c2cc3[nH]c(=O)c(=O)[nH]c3cc2C)c(OC)c1,–,"inconclusive: 11.7 µM [inhibitor, single point]"
Oc1c(CN2CCCC2)cc(COCc2ccccc2)c2cccnc12,–,active: 2.08 µM
COC(=O)c1ccc(-c2c(-c3ccccc3)ncc3cc(F)ccc23)cc1,–,"inconclusive: 16.5 µM [inhibitor, single point]"
CO/N=C/c1ccc(N2CCN(C(=O)c3cccc(C(F)(F)F)c3)CC2)c([N+](=O)[O-])c1,–,"inconclusive: 10.4 µM [inhibitor, partial curve, poor fit]"
C=CCn1c(C)nc2ccccc2c1=O,inactive: 13.2%,–
CN1CCN(C(=O)c2cc(COc3c(F)cccc3F)on2)CC1c1ccccc1 (stereo not given),–,active: 4.15 µM
CCn1nc(C)c(C2C(C#N)=C(N)OC3=C2C(=O)CCC3)c1C (stereo not given),inactive: -14.2%,–
O=C(COc1ccc(Br)cc1)c1ccc2c(c1)CCCC2,–,active: 8.28 µM
C/C(=N/NC(=O)CNC(=O)C1COc2ccccc2O1)c1ccc2c(c1)OCCO2 (stereo not given),–,"inconclusive: 14.7 µM [inhibitor, partial curve, poor fit]"
COc1ccccc1C(=O)O/N=C(/c1ccncc1)c1ccc([N+](=O)[O-])cc1,–,active: 5.22 µM
Cc1cc(C(=O)COc2cccnc2[N+](=O)[O-])c(C)n1Cc1cccs1,inactive: 18.8%,–
CC1CCN(Cc2c(C(=O)N/N=C/c3cc(Br)ccc3O)nnn2-c2nonc2N)CC1,–,"inconclusive: 14.7 µM [inhibitor, single point]"
Cc1ccc(Cc2nnc(SCC(=O)Nc3ccccc3)n(N)c2=O)cc1,–,"inconclusive: 18.5 µM [inhibitor, single point]"
Cc1ccn2cc(CNS(=O)(=O)c3ccc(Cl)s3)nc2c1,–,"inconclusive: 13.1 µM [inhibitor, partial curve, poor fit]"
O=C(c1ccccc1F)n1c2c(c3ccccc31)CCCC2,–,"inconclusive: 2.33 µM [inhibitor, full curve]"
